Laboratory results taken from US10653739B2, “Medicinal ambrosia maritima extracts” (priority 2015, dated 2020).
Some of these results come from one statement about several compounds together.

Tested on: UM-UC-9 bladder cancer cell line
Assay: MTS IC50, UM-UC-9 bladder cancer cell line
Format: cell-based
Conditions: 1000 cells/well, listed as damsin
Procedure: MTS was used to evaluate IC50 (drug concentration causing 50% inhibition of the desired activity) for SLs on various bladder, prostate, breast, lung and pancreatic cancer cell lines.
The MTS test was then conducted to evaluate the different IC50 of multiple cell lines. Purification was performed to separate the organic extract of SLs into different components. Micromolar doses, instead of micrograms, as determined by the molecular weight of the different SLs, Parthenin, Ambrosin, Damsin, and Neoambrosin, were tested in vitro. Ideally, for drug treatments, micromolar weights between 10-15 are preferred.

## C=C1C(=O)O[C@@H]2[C@H]1CC[C@H](C)[C@@H]1CCC(=O)[C@@]21C (single isomer, unassigned) [DAMSIN, Damsin]
  IC50: < 10 µM
